Experimental data: patent publication US8383640B2, “Substituted pyrimidine ether compounds and use thereof” (priority 2007, dated 2013)
Some entries share one result that the patent states for a list of compounds. At least one compound was matched to its structure with a doubt left.

Assays:
[1] = tested on: mite (Tetranychus cinnabarinus); test: Acaricidal activity, airbrush spray, mite; conditions: 5 mg/L, mortality after 2-3 days
cucumber grey mold = test: Fungicidal activity in vitro, cucumber grey mold; format: cell-based; conditions: 25 mg/L, 24 hours incubation
wheat powdery mildew = test: Fungicidal activity in vivo, wheat powdery mildew; conditions: 400 mg/L, plants sprayed, scored after 1 week
corn rust = test: Fungicidal activity in vivo, corn rust; conditions: 6.25 mg/L, plants sprayed, scored after 1 week

Row | Compound | control of mite [1] | control of cucumber grey mold (cucumber grey mold) | control of wheat powdery mildew (wheat powdery mildew) | control of corn rust (corn rust)
1 | COC=C(C(=O)OC)c1ccccc1COc1cc(C(F)(F)F)nc(Nc2ccccc2)n1 [Compound 20] | more than 50% | more than 50% | more than 80% | 
2 | COC=C(C(=O)OC)c1ccccc1COc1nc(Nc2ccccc2)nc(C)c1C [Compound 41] |  | more than 50% |  | 
3 | COC=C(C(=O)OC)c1ccccc1COc1cc(C)nc(Nc2ccccc2)n1 [Compound 19] |  | more than 50% | more than 80% | 
4 | CON=C(C(=O)OC)c1ccccc1COc1nc(Nc2ccccc2)nc(C)c1C [Compound 667] |  | more than 50% |  | more than 80%
